What is called AC50 is the concentration at which the activity in the assay is half-maximal.

Here are results for 40 molecules from PubChem BioAssay (NCATS).

This is one part of the list. These are further read-outs of the screen, such as a control signal, another cell line or another target. No call is given for them. Compounds called inactive in the main read-out are mostly missing here. Words in brackets tell the shape of the fitted curve; partial curves, single points and poor fits give uncertain potencies.

This experiment can be described thus: qHTS Assay for Inhibitors of PDE-IV (AID 607). Conditions: HEK293 ACTOne CNG channel cells, membrane potential fluorescence; measured here: parental cell counter-screen. In a few lines:
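HEK293 ACTOne cells with CNG channel (1000/well), endogenous PDE4; membrane potential dye, compounds up to 22.9 uM final. Fluorescence Ex 535/Em 590; RO 20-1724 (100 uM final) as reference.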
Regarding `c1ccc(CN2CCC3(CCc4ccccc43)CC2)cc1`, the AC50 was 12.6 µM [rising, partial curve].
The figure for `O=C(c1ccco1)N1CCC2(CC1)CCN(c1cccc(-c3ccccc3)c1)CC2` is 0.794 µM [rising, single point].
The figure for `COc1ccc2nc3c(cc2c1)Cc1ccccc1-3` is 10 µM [rising, single point]; for `Cc1ccc(CNC(=O)[C@H](C)[C@H]2C[C@]2(C)[C@H](NC(=O)OCc2ccccc2)c2ccccc2)o1` it is 0.0158 µM [falling, full curve, poor fit].
The figure for `COC(=O)[C@@]1(Cc2ccc(OC)cc2)[C@H]2c3cc(C(=O)N(C)C)n(Cc4ccsc4Br)c3C[C@H]2CN1C(=O)c1ccccc1` is 12.6 µM [rising, partial curve].
For `CC(=O)N[C@H](c1ccccc1)[C@@]1(C)C[C@@H]1[C@@H](C)C(=O)Nc1ccc2ccccc2c1`, the AC50 is 0.631 µM [rising, single point].
With `O[C@@H](c1ccccc1)C1CCN(CCc2ccccc2)CC1`, the concentration at half-maximal activity (AC50) was 15.8 µM [rising, partial curve].
Turning to `CCCC/C=C/C(NC(=O)c1ccc(C(F)(F)F)cc1)c1ccccc1` (stereo not given), the AC50 was 10 µM [rising, single point].
As for `O=C1CC2(CCCC2)CC(=O)N1CCNC[C@H]1COc2ccccc2O1`, the AC50 is 12.6 µM [rising, partial curve, poor fit].
As to `C1CCC(C(C[C@@H]2CCCCN2)C2CCCCC2)CC1`, the AC50 is 10 µM [rising, single point].
The figure for `COc1ccc(CNc2ccnc(-c3ccc4c(c3)OCO4)n2)c(OC)c1` is 15.8 µM [rising, single point]; for `COc1ccc(CNc2ccnc(-c3ccccc3CN(C)C)n2)c(OC)c1` it is 15.8 µM [rising, single point]; for `C[C@@H](C(=O)O)c1cccc(C(=O)c2ccccc2)c1` it is 3.16 µM [rising, partial curve, poor fit].
Under `C[C@@]12CC3CC(N)(C1)C[C@@](C)(C3)C2` stands 10 µM [rising, partial curve, poor fit]; under `COCC(=O)N1CCC2(CCN(Cc3ccncc3)CC2)CC1`, 0.631 µM [rising, single point].
Under `NC(=O)SCC(=O)Nc1ccc2ncccc2c1` stands 2.51 µM [falling, single point].
For `COc1ccccc1-c1nccc(Nc2ccc(F)cc2)n1`, the AC50 was 10 µM [rising, partial curve].
The figure for `C[C@@H](C(=O)NCC1CC1)[C@H]1C[C@]1(C)[C@H](NC(=O)OCc1ccccc1)c1ccccc1` is 0.398 µM [rising, single point]; for `COC(=O)[C@@]1(Cc2ccccc2)[C@H]2c3cc(C(=O)N(C)C)n(Cc4cc(F)c(F)c(F)c4)c3C[C@H]2CN1C(=O)c1ccccc1` it is 2.51 µM [rising, single point]; for `C[C@@H]1C[C@H]2[C@@H]3C[C@H](F)C4=CC(=O)C=C[C@@]4(C)[C@]3(F)[C@H](O)C[C@]2(C)[C@@]1(O)C(=O)CO` it is 0.158 µM [rising, full curve, poor fit].
Under `NC(N)=NN=Cc1c(Cl)cccc1Cl` stands 10 µM [rising, partial curve, poor fit]; under `COC(=O)[C@@]1(Cc2ccc(OC)cc2)[C@H]2c3cc(C(=O)N4CCCC4)n(CCc4ccc(OC)c(Br)c4)c3C[C@H]2CN1C(=O)c1ccccc1`, 12.6 µM [rising, single point].
The figure for `CCCC/C=C/C(NC(=O)c1ccccc1)c1ccccc1` (stereo not given) is 15.8 µM [rising, single point]; for `CCc1cccc2c(-c3ccccc3)c3c(nc12)OCC3` it is 10 µM [rising, single point]; for `O=C(O)/C=C\c1ccc(Cn2ccnc2)cc1` it is 7.94 µM [rising, partial curve, poor fit].
Regarding `CN(C)Cc1ccccc1-c1nc(NCc2ccccc2)c2ccccc2n1`, the AC50 was 10 µM [rising, partial curve].
The figure for `CCC/C=C(\CCC)C(NC(=O)Cc1ccccc1)c1ccc(C(=O)OC)cc1` (stereo not given) is 6.31 µM [rising, partial curve]; for `CN1[C@H](CC(=O)c2ccccc2)CCC[C@H]1C[C@H](O)c1ccccc1` it is 15.8 µM [rising, partial curve, poor fit].
Under `CCCC[C@@H]1C[C@H]1C(NC(=O)c1ccc(C(F)(F)F)cc1)c1ccc(C(=O)OC)cc1` (stereo not given in full) stands 2.51 µM [rising, full curve].
The figure for `COc1ccc(Oc2ncc3nc(C)c(=O)n(Cc4cccc(OC)c4)c3n2)cc1` is 10 µM [rising, single point].
Take `CCC/C=C(\CCC)C(NS(=O)(=O)c1ccc(Cl)cc1)c1ccccc1` (stereo not given): the half-maximal activity concentration (AC50) is 2.51 µM [rising, full curve, poor fit].
The figure for `O=S(=O)(c1ccccc1)N1CCC[C@@]2(CCN(Cc3cc(C(F)(F)F)cc(C(F)(F)F)c3)C2)C1` is 0.1 µM [rising, full curve, poor fit].
The figure for `C[C@@H](C(=O)O)[C@@H]1C[C@@]1(C)[C@@H](NC(=O)OCc1ccccc1)c1ccccc1` is 2 µM [rising, single point]; for `O=c1c(CCc2ccccc2)nc2cnc(N3CCNCC3)nc2n1C1CC1` it is 15.8 µM [rising, single point]; for `CC(C)(C)c1cc(Br)c(O)c(CN(Cc2cc(C(C)(C)C)cc(Br)c2O)C2CCCCC2)c1` it is 2.51 µM [rising, single point].
Under `C=C[C@@]1(C)CC(=O)[C@@]2(O)[C@@]3(C)[C@@H](O)CCC(C)(C)[C@@H]3[C@H](OC(=O)CCN(C)C)[C@H](OC(C)=O)[C@@]2(C)O1` stands 0.0794 µM [rising, full curve]; under `N#Cc1cccc(-c2cncnc2NCc2cccs2)c1`, 12.6 µM [rising, single point]; under `COc1ccc(CNc2ccnc(-c3ccccc3C(F)(F)F)n2)c(OC)c1`, 10 µM [rising, single point].
Take `Cc1cccc(CNc2ncnc3ccc(-c4ccccc4CN(C)C)cc23)c1`: the concentration at half-maximal activity (AC50) was 12.6 µM [rising, partial curve].
Under `O=C(O)CC[P+](c1ccccc1)(c1ccccc1)c1ccccc1` stands 2.51 µM [rising, single point].
